Earlier results as cited in patent US5783557A, “THF-γ2 analogs and pharmaceutical compositions comprising them” (Yeda Research and Development Company Ltd at Weizmann …, priority 1993, dated 1998).
Part of at least one peptide drawing is inferred or uncertain, most often the ends. No end group written: not given here.

System: murine cytomegalovirus (MCMV)
Settings: cited from earlier work

What does the source list for “LEDGPKFL [THF-γ2, Leu-Glu-Asp-Gly-Pro-Lys-Phe-Leu]”?
recipient mice in which fatal disease was prevented by transferred MCMV immune spleen cells (donor mice injected daily with THF-γ2, recipients given MCMV and CY, 38% without THF-γ2): 93%; IFN-y production (in vitro with cultured cells or in vivo in MCMV-infected mice): did not affect
